# Where “and” joins values, the source holds several entries; their conditions need not be identical. Equal values may be shown once. The list shows a part of the results. Further columns of the screen follow, without active or inactive calls. The list favours compounds with an active or inconclusive main result. Words in brackets tell the shape of the fitted curve; partial curves, single points and poor fits give uncertain potencies.
# Assay: IkB Signaling
# Conditions: ABC-DLBCL IkBa-CBG/CBR dual luciferase ratio (green luciferase fused to IkBa over red control in OCI-Ly3 lymphoma cells), 4 h
# In short: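 Luminescence ratio of IκBα-fused green versus native red beetle luciferase in OCI-Ly3 cells, 4 h post-doxycycline with compound; red signal alone, scaled from basal (0%) to zero light (-100%), flagged nonspecific or cytotoxic effects.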
# [1] = measured here: control luc red channel unless noted
# [2] = measured here: IkB-luc green channel
# [3] = measured here: control luc red channel
structure (smiles),measurement,setting,value
CC1CCN(C(=O)Cn2cc(SCC(=O)NCc3ccccc3Cl)c3ccccc32)CC1,AC50,[1],"25.1 µM [falling, single point]"
O=C(C(c1ccccc1)c1ccccc1)N1CCN(CC(O)COc2ccccc2)CC1 (centres undefined),AC50,[1],"15.8 µM [falling, partial curve]"
CNCCCC12CCC(c3ccccc31)c1ccccc12,AC50,[1],"25.1 µM [falling, partial curve]"
CCCN(CCC)CCCNC(=O)C1CCC(CNS(=O)(=O)c2cccc3nsnc23)CC1 (centres undefined),AC50,[1],"39.8 µM [falling, single point]"
Cc1ccc(CN(Cc2ccco2)C(=O)COc2c(C)cc(C)cc2C)cc1,AC50,[1],"25.1 µM [falling, single point]"
Oc1ccc(-c2nc3ccccn3c2Nc2ccc3c(c2)OCCO3)cc1,AC50,[1],"12.6 µM [falling, partial curve]"
COCCNC(=O)CSc1c2c(nc3cc(Cl)ccc13)CCCC2,AC50,[2],"3.98 µM [rising, partial curve]"
same,AC50,[3],"25.1 µM [falling, single point]"
CCCc1nn2c(=O)cc(COC(=O)c3cccc(NC(=O)CCc4ccccc4)c3)nc2s1,AC50,[1],"10 µM [falling, partial curve]"
Cc1cc(C)c2c(c1)-c1c(ssc1=S)C(C)(C)N2C(=O)CSc1nncn1C,AC50,[1],"15.8 µM [falling, partial curve]"
CCOc1ccc(CNC(=O)C2CCN(S(=O)(=O)N3CCCCC3)CC2)cc1,AC50,[1],"0.316 µM [falling, partial curve]"
O=C(OCN1C(=O)c2ccccc2C1=O)c1cccs1,AC50,[1],"1.58 µM [rising, partial curve]"
COc1cccc(C(=O)Nc2cc(-c3cn4cccnc4n3)ccc2C)c1OC,AC50,[1],"12.6 µM [rising, partial curve]"
O=C1Cc2c([nH]c3ccc(Br)cc23)-c2ccccc2N1,AC50,[2],"6.31 µM [falling, full curve]"
same,AC50,[3],"10 µM [falling, full curve, poor fit] and 2 µM [falling, full curve]"
Cc1ccccc1Cn1nc(C)c(NC(=O)c2noc3c2CC(C(C)(C)C)CC3)c1C (centres undefined),AC50,[1],"12.6 µM [falling, partial curve]"
Cc1ccc(OCC(=O)Nc2ccccc2C(=O)OCc2cc(=O)n3nc(C4CC4)sc3n2)cc1,AC50,[1],"12.6 µM [falling, partial curve]"
CC1CCN(C(=O)c2c(NC(=O)c3ccccc3F)sc3c2CCC(C(C)(C)C)C3)CC1 (centres undefined),AC50,[1],"12.6 µM [falling, partial curve]"
CCOc1cc(C2C(C(=O)OC)=C(C)NC3=C2C(=O)c2ccccc23)c(Br)cc1OC (centres undefined),AC50,[1],"31.6 µM [falling, partial curve]"
Nc1nc(-c2ccccc2)nc(-c2ccccc2O)n1,AC50,[1],"15.8 µM [falling, partial curve]"
Cn1c(/N=C/c2c(O)ccc3ccccc23)nc2ccccc21,AC50,[1],"20 µM [falling, partial curve]"
CCn1c(COc2ccc(C)cc2)nnc1SCC(=O)Nc1cc(OC)ccc1OC,AC50,[1],"25.1 µM [falling, partial curve]"
CCCCN(CCCNC(=O)CN1N=C(c2ccccc2)CCC1=O)c1ccccc1,AC50,[1],"25.1 µM [falling, single point]"
CCCCSc1nnc2n(-c3cccc(C)c3)c(=O)c3c4c(sc3n12)CCCC4,AC50,[1],"15.8 µM [falling, partial curve]"
COc1ccc(NC(=O)COCc2cc(-c3ccco3)on2)cc1,AC50,[1],"5.01 µM [rising, full curve, poor fit]"
COc1ccc(NC(=O)CSc2nc3ccccc3[nH]2)cc1,AC50,[1],"12.6 µM [falling, partial curve]"
CCCCC(CC)CNC(=O)CCCc1nnc2n(CCC)c(=O)c3sccc3n12 (centres undefined),AC50,[1],"10 µM [falling, partial curve]"
Cc1cccc(N2CCN(C(=O)c3ccc4c(c3)N(Cc3ccccc3F)C(=O)c3ccccc3S4=O)CC2C)c1 (centres undefined),AC50,[1],"3.98 µM [falling, full curve, poor fit]"
COc1cc2c(=O)c(C(=O)c3ccc(C)c(C)c3)cn(Cc3ccccc3)c2cc1OC,AC50,[1],"25.1 µM [falling, single point]"
COc1ccc(-c2cc3nc(C)c(CCC(=O)N4CCN(c5ccccc5)CC4)c(C)n3n2)c(OC)c1,AC50,[1],"2.51 µM [falling, partial curve]"
Cc1cc(C)c2nc(NC(=O)c3ccc(S(=O)(=O)N4CCCC4)cc3)sc2c1,AC50,[1],"0.158 µM [falling, full curve]"
Cc1nn(C)c(C)c1CNC(=O)c1cc2n(n1)C(C(F)(F)F)CC(c1cccs1)N2 (centres undefined),AC50,[1],"12.6 µM [falling, partial curve]"
Cc1ccc(-c2nnc(N3CCCCC3)c3ccccc23)cc1S(=O)(=O)N1CCN(C)CC1,AC50,[1],"12.6 µM [falling, partial curve]"
COc1ccc(C2CC(=O)c3cnc(NC(=O)c4cc(OC)cc(OC)c4)nc3C2)cc1 (centres undefined),AC50,[1],"0.794 µM [falling, full curve]"
O=C(CSc1nnc(COc2ccc(Cl)cc2)o1)Nc1ccccc1,AC50,[1],"6.31 µM [falling, partial curve]"
COC(=O)c1c(C)oc2ccc(N(C(=O)c3ccncc3)S(=O)(=O)c3cc(C)c(C)cc3C)cc12,AC50,[1],"3.16 µM [falling, full curve]"
COc1ccc(C(CC(=O)Nc2ccc(C)cn2)N2Cc3ccccc3C2=O)cc1OC (centres undefined),AC50,[1],"6.31 µM [rising, partial curve]"
COc1ccc2c(c1)c(CC(=O)N1CCOCC1)c(C)n2C(=O)c1ccc(Cl)cc1,AC50,[1],"39.8 µM [falling, partial curve]"
CCC(CC)C(=O)Nc1nnc(SCC(=O)N2CCN(c3ccccc3OC)CC2)s1,AC50,[1],"31.6 µM [falling, partial curve]"
COc1ccc(-n2nc(C(=O)NCCc3ccc(Cl)cc3)c3c4ccccc4n(C)c3c2=O)cc1Cl,AC50,[1],"3.98 µM [falling, partial curve]"
O=c1c2cn[nH]c2nc(SCc2ccc3c(c2)OCCO3)n1-c1ccccc1,AC50,[2],"20 µM [falling, partial curve]"
same,AC50,[3],"31.6 µM [falling, single point]"
N#C/C(=C\c1ccc(-c2ccccc2C(=O)O)o1)c1nc2ccccc2[nH]1,AC50,[1],"25.1 µM [falling, partial curve]"
COc1cc(C2NC(=O)NC(c3ccccc3)=C2C(C)=O)ccc1OCC(=O)O (centres undefined),AC50,[1],"10 µM [falling, partial curve]"
CCCNS(=O)(=O)c1ccc(CCC(=O)N2CCCCC2)cc1,AC50,[1],"25.1 µM [falling, single point]"
CCc1noc(-c2ccc(NC(C)c3ccccc3)c([N+](=O)[O-])c2)n1 (centres undefined),AC50,[1],"0.1 µM [rising, full curve]"
CCN(CC)C(=O)C1=C(C)Nc2nc3ccccc3n2C1c1ccc(Br)cc1 (centres undefined),AC50,[1],"15.8 µM [falling, single point]"
CC(=O)c1cccc(NC(=O)CCS(=O)(=O)c2cc3c(cc2C)NC(=O)CO3)c1,AC50,[1],"12.6 µM [falling, partial curve]"
Cc1ccc(CNC(=O)C2c3ccccc3C(=O)N(C)C2c2c[nH]c3ccccc23)o1 (centres undefined),AC50,[1],"10 µM [falling, partial curve]"
CN(C)S(=O)(=O)n1cc(/C=C(\NC(=O)c2ccccc2F)C(=O)NCCCn2ccnc2)c2ccccc21,AC50,[1],"20 µM [falling, single point]"
Cc1ccccc1CN1CCC(CNc2ncnc3onc(-c4ccc(Cl)cc4)c23)CC1,AC50,[1],"31.6 µM [falling, single point]"
Cc1nc2sccn2c1-c1nc(-c2cc3ccccc3o2)cs1,AC50,[1],"39.8 µM [falling, single point]"
CCOc1ccc(NC(=O)c2c(NC(=O)c3ccco3)sc3c2CCC(C(C)(C)C)C3)cc1 (centres undefined),AC50,[1],"39.8 µM [falling, partial curve, poor fit]"
COc1cc(NS(=O)(=O)c2ccc(NC(=O)C(C)Oc3ccc(Cl)cc3Cl)cc2)nc(OC)n1 (centres undefined),AC50,[1],"15.8 µM [falling, partial curve]"
COc1ccc(Nc2c(-c3ccc(Cl)cc3)nc3cnccn23)cc1OC,AC50,[1],"39.8 µM [falling, single point]"
O=C(NCc1ccccc1Cl)C1CCN(S(=O)(=O)c2ccc3c(c2)CCCN3C(=O)C2CCC2)CC1,AC50,[1],"2 µM [rising, partial curve]"
CC(O)c1ccc2c(c1)OCCOCCN(C)CCOCCO2 (centres undefined),AC50,[1],"126 nM [rising, full curve] [measured here: IkB-luc green channel]"
Cc1cccc(N2C(=O)C(CC(=O)Nc3cccc(F)c3)N(Cc3cccs3)C2=O)c1 (centres undefined),AC50,[1],"15.8 µM [falling, single point]"
Cc1ccc(Nc2cc(C)nc3nc(Cc4ccc(Cl)cc4)nn23)cc1,AC50,[1],"25.1 µM [falling, partial curve]"
Cc1ccc(-c2ccc(=O)n(Cc3ccc(F)cc3)n2)cc1,AC50,[1],"39.8 µM [falling, single point]"
COc1cccc(CNC(=O)Cn2c(=O)oc3cc(S(=O)(=O)N4CCCC4)ccc32)c1,AC50,[1],"25.1 µM [falling, partial curve]"
Cc1ccc(CN2CCSc3ccc(C(=O)Nc4ccc(Cl)cc4)cc32)cc1,AC50,[1],"25.1 µM [falling, partial curve]"
CCOc1ccc(CCNC(=O)CCCc2cc(-c3ccc(OCC)cc3)on2)cc1,AC50,[1],"15.8 µM [falling, partial curve, poor fit]"
N#Cc1c(/N=C/c2ccco2)oc(-c2ccccc2)c1-c1ccccc1,AC50,[1],"31.6 µM [falling, partial curve]"

# Source: PubChem BioAssay AID445 (National Center for Advancing Translational Sciences (NCATS), 2006)
